Results reported in patent US20100022401A1, “Avidin-like proteins from symbiotic bacteria” (LICENTIA OY, priority 2004, published 2010).

System: human serum antibodies elicited toward avidin and streptavidin
Test: ELISA immunological cross-reactivity with sera of cancer patients exposed to avidin and streptavidin
Format: binding
Conditions: diluted 1:100

Substance: Streptavidin: bacterial analog for avidin from S. avidinii (SEQ ID NO:7) [reference compound]
- Recognition by patient sera (ELISA, absorbance at 405 nm): even more clearly
